Measurements published in PubChem BioAssay AID2685 (National Center for Advancing Translational Sciences (NCATS), 2010).
The other results are listed elsewhere or left out. The main result of the screen is listed elsewhere. These columns were measured beside it and carry no call. Compounds called inactive in the main read-out are mostly missing here. Potencies come from curve fits of mixed quality, noted in brackets.

Experiment: qHTS Assay for Lipid Storage Modulators in Drosophila S3 Cells;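 on cell number change: cells counted by Cell Tracker Red CMTPX staining in the red channel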
Conditions: BODIPY lipid droplet fluorescence, 18-24 h; for cell number change: measured here: cell count max response, cells fed with added oleic acid
Method in brief: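 Drosophila S3 cells got compounds at several concentrations plus oleic acid (400 uM solution). Laser-scanning cytometry with 488 nm excitation read lipid droplets at 500-530 nm and cells at 575-640 nm. Percent activity was relative to 20 uM Triacsin C.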

[1] = measured here: cell number channel AC50, cells fed with added oleic acid
[2] = measured here: lipid fluorescence (Fed channel) AC50, cells fed with added oleic acid

Molecule COc1ccc(CCNC(=O)CN(c2ccc(OC)c(OC)c2)S(C)(=O)=O)cc1 has a cell number change of 1.28%.

With O=C(NCc1cccnc1)C1CCCN(S(=O)(=O)c2cccc3nsnc23)C1 (configuration not stated) the cell number change was 30.1%, the AC50 [1] was 0.0731 µM [rising, full curve, poor fit] and the AC50 [2] was 0.00651 µM [rising, full curve, poor fit].

For N#Cc1ccncc1S(=O)c1ccc(Cl)cc1 (configuration not stated), the cell number change was 30.8% and the AC50 [1] was 18.4 µM [rising, partial curve, poor fit].

In the case of Cc1cc(C)c(S(=O)(=O)c2ccccc2)c(OC(=O)c2c(F)cccc2Cl)n1, the cell number change is reported as -46.7% and the AC50 [1] is reported as 29.1 µM [falling, single point].

For O=C(O)C1C2C=CC(C2)C1C(=O)NCCCN1CCOCC1 (configuration not stated), the cell number change was -36.1% and the AC50 [2] was 29.1 µM [falling, single point].

With CCOC(=O)c1c(CN2CCN(C)CC2)n(-c2ccccc2)c2cc(Br)c(O)cc12 the cell number change was -2.22% and the AC50 [2] was 6.51 µM [rising, single point].

For CCCN(Cc1ccccc1)C(=O)Nc1ccc2c(c1)nnn2C, the AC50 [1] was 6.51 µM [rising, partial curve].

For CCOc1cc(C(=O)OCC(=O)Nc2ccc(Cl)cn2)ccc1OCC(=O)N1CCOCC1, the cell number change was 31.6%, the AC50 [1] was 5.17 µM [rising, partial curve] and the AC50 [2] was 0.58 µM [rising, single point].

For CCCn1c2ccccc2c2cnn(CC(=O)NCCCN3CCCC(C)C3)c(=O)c21 (configuration not stated), the cell number change was 35.7% and the AC50 [1] was 16.4 µM [rising, partial curve, poor fit].

In the case of C=CCOc1ccc(/C=C2\C(=N)N3N=C(S(=O)(=O)CC)SC3=NC2=O)cc1OC, the cell number change is reported as 25.4% and the AC50 [2] is reported as 0.00411 µM [rising, full curve, poor fit].

For CC(=O)NC(Cc1ccc(O)cc1)C(=O)NN (configuration not stated), the AC50 [1] was 2.59 µM [falling, partial curve].

Cc1ccc(C(=O)Nc2nc(-c3ccc(F)cc3)cs2)o1 gave a cell number change of -19.7%.

With COc1c(C=O)cc2c3c1CCCN3CCC2 the cell number change was 8.21% and the AC50 [2] was 4.61 µM [rising, full curve].

With CSc1nnc(N2C(=O)C(O)=C(C(=O)c3ccc(C)o3)C2c2ccc(C)cc2)s1 (configuration not stated) the cell number change was -0.85% and the AC50 [1] was 0.651 µM [rising, single point].

For CCOC(=O)c1sc(NC(=O)c2cccc(S(=O)(=O)N3CCN(C)CC3)c2)cc1C, the cell number change was -37%, the AC50 [1] was 32.6 µM [falling, single point] and the AC50 [2] was 7.31 µM [falling, partial curve].

Molecule COC(=O)c1ccc(/C=N/NC(=O)c2ccccc2Cl)cc1 has a cell number change of -5.47%.

For CS(=O)(=O)c1ccc2nc(NC(=O)c3ccc(Cn4cc(Br)cn4)o3)sc2c1, the cell number change was 8.59% and the AC50 [2] was 2.06 µM [rising, partial curve].

In the case of Cc1ccccc1C(=O)c1cccn1CC(=O)NCc1ccco1, the cell number change is reported as 14.4% and the AC50 [2] is reported as 4.61 µM [falling, single point].

In the case of COc1ccc(-n2c(SC)nc(O)cc2=O)cc1, the cell number change is reported as -30.5% and the AC50 [1] is reported as 20.6 µM [falling, partial curve, poor fit].

Work on CCN1CCN(C(=O)CCNC(=O)Cn2cnc3ccccc3c2=O)CC1 yielded a cell number change of 3.75%.

Molecule Cn1nc(C(F)(F)F)cc1Oc1ncc(C(F)(F)F)cc1Cl has a cell number change of -38.6%.

In the case of O=C(C[n+]1ccccc1)c1ccc(NC(=O)c2ccccc2)cc1, the cell number change is reported as -0.671% and the AC50 [2] is reported as 8.2 µM [falling, partial curve].

Molecule O=S(=O)(c1cccc(-c2nnco2)c1)N1CCCC1 has a cell number change of -27.1%.

For Cc1nn(-c2ccccc2)c(C)c1NC(=O)COc1ccc([N+](=O)[O-])cc1, the AC50 [2] was 14.6 µM [rising, partial curve].

For N/C(=N\OC(=O)Cc1ccc(Cl)cc1)c1ccccn1, the cell number change was 6% and the AC50 [2] was 4.61 µM [rising, partial curve].

In the case of C/C(CC(=O)NC(C)C)=N\NC(=O)COc1cc(C)c(Br)cc1Br, the cell number change is reported as 16.7% and the AC50 [2] is reported as 2.91 µM [rising, full curve].

In the case of CC(=O)NC(c1cc(Cl)c2cccnc2c1O)C(C)C (configuration not stated), the cell number change is reported as -38.6%, the AC50 [1] is reported as 29.1 µM [falling, single point] and the AC50 [2] is reported as 29.1 µM [falling, single point].

With CN1C(=O)CS(=O)c2ccc(C(=O)NC3CC3)cc21 (configuration not stated) the cell number change was -5.52%.

Work on Cc1ccc(S(=O)(=O)N2CCOCC2)cc1NC(=O)C1=NN(c2ccccc2)C(=O)CC1 yielded a cell number change of -17.8%.

With Cc1c(NC(=O)c2cc(=O)[nH]c(=O)[nH]2)c(=O)n(-c2ccccc2)n1C the cell number change was 2.58%.

For CCOc1ccc(C(=O)NCc2ccco2)cc1OC, the AC50 [2] was 0.13 µM [falling, full curve, poor fit].

With O=C(NC(=S)NCCSc1ccccc1)c1cccnc1 the cell number change was 10.1% and the AC50 [1] was 1.46 µM [rising, partial curve, poor fit].

With Cc1cc(C)n(S(=O)(=O)c2ccc(F)cc2)n1 the cell number change was 0.365% and the AC50 [2] was 2.31 µM [rising, full curve].

For COc1ccc(/C=N/NC(=O)c2cccc(NC(C)=O)c2)c(C(=O)O)c1OC, the cell number change was 22.1%, the AC50 [1] was 4.11 µM [rising, full curve, poor fit] and the AC50 [2] was 4.11 µM [rising, full curve, poor fit].

For Cn1cc(P(=O)(N2CCOCC2)N2CCOCC2)cc1P(=S)(N1CCOCC1)N1CCOCC1, the AC50 [2] was 13 µM [rising, partial curve].

For O=c1[nH]c(-c2ccccc2Cl)nc2c1sc(=S)n2-c1ccccc1, the cell number change was -22% and the AC50 [2] was 3.66 µM [falling, full curve, poor fit].

With COc1ccccc1NC(=O)Nc1nc(CC(=O)N2CCN(c3ccc(F)cc3)CC2)cs1 the cell number change was -19.8% and the AC50 [1] was 1.16 µM [falling, full curve, poor fit].

With COc1ccc(S(=O)(=O)NCC2CCCN(C(=O)C3CCCC3)C2)cc1 (configuration not stated) the cell number change was -1.09% and the AC50 [2] was 0.411 µM [falling, single point].

In the case of CCC(=O)Nc1ccccc1C(=O)OCC(=O)Nc1ccc(S(N)(=O)=O)cc1, the cell number change is reported as 0.607% and the AC50 [2] is reported as 0.651 µM [falling, single point].

For Cc1ccc(-n2c(Cl)c(Cl)nc(Cl)c2=O)cc1, the cell number change was -66.6%, the AC50 [1] was 13 µM [falling, partial curve] and the AC50 [2] was 5.8 µM [falling, full curve].
